Test results from patent US6906179.
No constants are given. Whether binding was seen depends on the method and setting. Some binding calls cover weakened binding; strength is not graded here.

Amino acid sequences for entries named in this document (tags omitted). A change or cut given only in a name is not applied to a line headed by its entry.
UniProt P0A7C2: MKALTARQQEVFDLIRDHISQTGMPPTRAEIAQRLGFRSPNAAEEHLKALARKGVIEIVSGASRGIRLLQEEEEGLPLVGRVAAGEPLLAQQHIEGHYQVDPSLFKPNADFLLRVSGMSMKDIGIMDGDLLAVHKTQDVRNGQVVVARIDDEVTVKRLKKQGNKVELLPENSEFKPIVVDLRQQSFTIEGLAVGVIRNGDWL
UniProt P84022: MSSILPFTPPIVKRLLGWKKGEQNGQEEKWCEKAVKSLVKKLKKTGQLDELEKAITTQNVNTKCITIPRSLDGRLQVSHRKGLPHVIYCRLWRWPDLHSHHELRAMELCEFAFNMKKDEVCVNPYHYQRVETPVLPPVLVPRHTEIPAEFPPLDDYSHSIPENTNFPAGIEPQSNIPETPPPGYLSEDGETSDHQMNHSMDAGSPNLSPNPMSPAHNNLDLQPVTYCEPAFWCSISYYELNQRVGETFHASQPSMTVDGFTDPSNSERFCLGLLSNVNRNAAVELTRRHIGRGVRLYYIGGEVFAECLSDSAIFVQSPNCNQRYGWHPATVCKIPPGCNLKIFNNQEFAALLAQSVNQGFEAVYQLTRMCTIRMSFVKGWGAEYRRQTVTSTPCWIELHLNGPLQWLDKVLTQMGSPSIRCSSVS

B1: Clone S1+30 (protein)
chain: EFGTRRTKGIKVVGKWKEVKIDPNMFADGQMDDLVCFEELTDYQLVSPAKNSLQLSSQRKHPRERHKLFQKK
B2: Clone S3+125 (protein)
chain: IRHEAAGICPKIIEAEESRMGLIIVNAWYGNFVNDKSRKSEKVKVIDVTVPCSAWVRTRSSSSRGLQAGLPGFYDPCVGEEKNLKVLYQFRGVLHQVMVLDSEALRIPKQSHRIDTDG

Key:
[1] = target: LexA-Smad1 (full length Smad1 fused in frame to the LexA DNA binding domain (1-202) in pEG202) (UniProt P0A7C2); test: yeast two-hybrid; list of Smad1 interactors
Smad3 = Smad3 (UniProt P84022); test: yeast two-hybrid; list of Smad3 interactors

| Binder | binding [1] | binding (Smad3) |
| --- | --- | --- |
| B1 | binds |  |
| B2 |  | binds |
